PubChem BioAssay AID504774 – Drosophila RNAi Screening Center – 2011
Purpose: 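Knock-downs that shift viability of MMS-exposed cells relative to untreated ones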 (primary screen). Cells: Drosophila Kc167 cells. Reagents: long dsRNA against Drosophila genes, about 0.25 µg dsRNA per well. Duration: about 6 days: 3 days knock-down, then 3 days with or without MMS. Challenge: methyl methanesulphonate 0.004% (w/v) for 3 days after knock-down. Read-out: 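ATP-dependent luminescence as a measure of live cells in MMS-exposed wells, quantile normalised within each plate, with replicate values also given as a mean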. Scale: mean viability with MMS: higher = more surviving cells after MMS.
The screen tested about 23,000 reagents; this is a random part of those that have a named target and a result. 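Values are quantile-normalised luminescence on an arbitrary scale; higher means more cells surviving MMS.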 The numbers tell different reagents against one gene apart. Names joined by + are all predicted targets of the reagent. Further read-outs or replicates are left out here. No sequences are given here.

Silencing of CG42342 #1 resulted in: mean viability with MMS 3.65e6. Against CG42342 #2, the values are mean viability with MMS 8.84e5. For CG42342 #3, the values are mean viability with MMS 3.66e6. After knock-down of CG42342 #4 the results were mean viability with MMS 3.55e6. Depletion of CG42342 #5 came out at: mean viability with MMS 3.47e6. For CG42342 #6, the values are mean viability with MMS 3.56e6.

Against CG42342 #7, the values are mean viability with MMS 3.39e6. CG42342 #8 gave mean viability with MMS 3.59e6. With knock-down of CG34327 #1, the record shows mean viability with MMS 3.30e6. CG34327 #2 scored mean viability with MMS 3.49e6. Silencing of TBC1d7 + mRpS24 resulted in: mean viability with MMS 3.78e6. For CG3703 #1 the deposit lists mean viability with MMS 3.82e6.

Depletion of CG3703 #2 gave: mean viability with MMS 3.79e6. CG3703 #3 scored mean viability with MMS 3.54e6.

An excerpt from the list above:
CG42342 #2 → mean viability with MMS = 8.84e5
CG42342 #3 → mean viability with MMS = 3.66e6
